Assay results as given in PubChem BioAssay AID1487 (National Center for Advancing Translational Sciences (NCATS), 2009).
Values joined by “and” are separate entries in the source; they are usually repeats but may differ in a detail not shown here. Equal values may be shown once. This is one part of the list. The main result of the screen is listed elsewhere. These columns were measured beside it and carry no call. Most of these compounds were active or inconclusive in the main read-out, so they are no random draw. The note in brackets gives the kind of curve behind each potency; many fits are weak.

Assay: qHTS Assay for Modulators of Lamin A Splicing
Conditions: HeLa LMNA splicing GFP/RFP minigene ratio, 48 h
Procedure, shortened: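 S3 HeLa stable clones carrying a lamin A-EGFP splicing minigene plus DsRed2 were seeded at 600 cells/well in Opti-MEM with 2% FBS, pin-dosed and incubated 48 h at 37°C. Acumen cytometry (488 nm) gave the GFP/RFP total-intensity ratio.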

[1] = measured here: GFP splicing reporter channel
[2] = measured here: RFP viability control channel

SMILES	AC50 [1]	AC50 [2]
Cc1ccc(NNc2c(C)nc3ccccc3nc2=O)cc1	2.24 µM [falling, partial curve, poor fit]	2.51 µM [falling, partial curve]
COc1cc2c(c(OC)c1OC)CC(=O)N(C)CC2	0.251 µM [falling, full curve, poor fit]	0.1 µM [falling, full curve, poor fit]
Cc1ccccc1-c1nc(CS(=O)(=O)CC(=O)N(C)C2CCCCC2)c(C)o1		8.91 µM [rising, partial curve]
O=C(NCC(c1cccnc1)N1CCN(c2ccccc2F)CC1)c1cccc(Cl)c1 (stereo not drawn)	35.5 µM [rising, single point]	31.6 µM [rising, single point]
Cc1ccc(S(=O)(=O)N2CCN(S(=O)(=O)N(C)C)CC2)c(C)c1		22.4 µM [rising, single point]
CC1CCN(CC(O)COCCC23CC4CC(CC(C4)C2)C3)CC1 (stereo not drawn)		31.6 µM [rising, single point]
CCCCSCCCNC(=O)CN1C(=O)c2cccnc2Oc2ccc(Cl)cc21	3.55 µM [falling, single point]	1.12 µM [falling, single point]
CCn1c(C(=O)NC(C)c2ccc3c(c2)OCCO3)cc2sccc21 (stereo not drawn)		12.6 µM [rising, single point]
Cc1cc(-c2nc3cccnc3s2)ccc1NS(=O)(=O)c1ccc2c(c1)OCCO2	15.8 µM [rising, single point]	25.1 µM [rising, single point]
CC(C)(C)c1ccccc1OCCOCCSc1ncccn1	12.6 µM [rising, partial curve]	12.6 µM [rising, single point]
CS/C(=N\S(=O)(=O)c1cccs1)Nc1ccc(N2CCOCC2)cc1		35.5 µM [rising, single point]
CCOc1ccc(S(=O)(=O)NCC(c2ccco2)S(=O)(=O)c2cccs2)cc1 (stereo not drawn)		0.00398 µM [falling, full curve, poor fit]
CCOC(=O)CNC(c1ccccc1)c1cc(Br)ccc1NC(=O)CCN1CCOCC1 (stereo not drawn)	35.5 µM [falling, single point]	12.6 µM [falling, partial curve]
CC1(C(=O)OCC(=O)N2c3ccccc3Sc3ccccc32)CC1(Cl)Cl (stereo not drawn)		35.5 µM [rising, single point]
CCN(CC)CCCC(C)Nc1c2ccc(Cl)cc2nc2ccc(OC)cc12 (stereo not drawn)	14.1 µM [falling, partial curve] and 4.47 µM [falling, full curve, poor fit]	35.5 µM [falling, single point] and 4.47 µM [falling, full curve, poor fit]
N#Cc1cc2ccc(N3CCOCC3)cc2cc1C#N		35.5 µM [falling, single point]
CCn1c(SCC(=O)Nc2cc(OC)c(OC)c(OC)c2)nnc1-c1cccs1	12.6 µM [rising, partial curve]	12.6 µM [rising, partial curve]

Laid out differently: results already given
SMILES | AC50 [1] | AC50 [2]
COc1cc2c(c(OC)c1OC)CC(=O)N(C)CC2 | 0.251 µM [falling, full curve, poor fit] | 0.1 µM [falling, full curve, poor fit]
Cc1ccccc1-c1nc(CS(=O)(=O)CC(=O)N(C)C2CCCCC2)c(C)o1 |  | 8.91 µM [rising, partial curve]

Next part.

SMILES	AC50 [1]	AC50 [2]
COc1ccc(N2CCN(C(=O)CCc3c(C)nn(-c4ccc(N5CCCC5)nn4)c3C)CC2)cc1	0.0447 µM [falling, full curve]	0.1 µM [falling, full curve]
COc1ccc(Nc2nc(NCc3ccco3)nc(N/N=C/c3ccc(O)cc3)n2)cc1	35.5 µM [falling, partial curve]	25.1 µM [falling, partial curve, poor fit]
CCOC(=O)c1c(C)[nH]c(C(=O)N/N=C\c2ccccc2Cl)c1C		8.91 µM [rising, partial curve]
CCN(CC)C(=O)CSc1nc(N)c2c3c(sc2n1)CC(C)CC3 (stereo not drawn)		35.5 µM [rising, single point]
CCn1c2ccccc2c2cc(CN3CCN(C(=O)c4ccco4)CC3)ccc21	0.0891 µM [falling, full curve, poor fit]	6.31 µM [falling, single point]
Cc1cccc(N/C(N)=N/c2nc(C(F)(F)F)cc(C(F)(F)F)n2)c1	0.00316 µM [rising, full curve, poor fit]	
CCN(CC)S(=O)(=O)c1cccc(S(=O)(=O)c2cccc(S(=O)(=O)N(CC)CC)c2)c1	11.2 µM [rising, single point]	
CCOCC(=O)Nc1ccccc1C(=O)N1CCOCC1		3.55 µM [rising, partial curve, poor fit]
Cc1ccc(-n2ncc(C(=O)N3CCN(c4cccc(C)c4)C(C)C3)c2C2CCN(C(=O)OC(C)(C)C)CC2)cc1 (stereo not drawn)		22.4 µM [rising, single point]
Cc1ccc(C2C(C(=O)O)c3ccccc3C(=O)N2C)c(C)c1 (stereo not drawn)	7.08 µM [falling, partial curve, poor fit]	7.08 µM [falling, full curve, poor fit]
Cc1ccc(-c2noc(CCCC(=O)N3CCOCC3)n2)cc1		0.0631 µM [rising, full curve, poor fit]
COc1ccccc1-c1nc(NCc2ccccc2)c2ccccc2n1	25.1 µM [falling, single point]	22.4 µM [falling, partial curve]
C/C(=N\NC(=S)NCC(C)(C)C)c1cc(F)cc(F)c1O	2.51 µM [falling, full curve, poor fit]	1.41 µM [falling, partial curve]
Cn1c(SCC(=O)Nc2cc(C(C)(C)C)nn2-c2ccccc2)nc2ccccc21		17.8 µM [rising, partial curve]
O=C(Nc1c(F)cccc1F)c1cnc(N2CCN(c3ccccn3)CC2)c2ccccc12		22.4 µM [rising, single point]
COc1ccc(OC)c(/C=N/NC(=O)c2cc(-c3ccc(C)o3)nc3ccccc23)c1	35.5 µM [rising, single point]	
